# Results as given in PubChem BioAssay AID504834 (National Center for Advancing Translational Sciences (NCATS), 2011).
# Out of some 320,000 compounds screened, about 22,000 (6.9%) were called active. The shares of active, inactive and inconclusive entries below differ from those in the screen. Calls come from the whole dose curve; as a rule, active = well fitted inhibition curve with a large enough effect; inconclusive = small, poorly fitted or top-dose-only effect, or another doubt; inactive = no such curve, though single readings can be large or run the other way. Where the call is inconclusive, the potency comes from a doubtful curve fit.
# Assay: Primary qHTS for delayed death inhibitors of the malarial parasite plastid, 96 hour incubation
# Conditions: P. falciparum luciferase reporter growth; series mostly up to 28.7 µM; activity change, negative = inhibition: at the top concentration
# Procedure, shortened: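 96 h incubation, 37 C, 5% CO2, of luciferase-reporter P. falciparum-infected RBCs (2% hematocrit, 0.05% parasitemia final) with test compounds; endpoint luminescence.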
# % is set by controls: 0 for no effect and ±100 for the full control effect; potency is the fitted concentration of half-maximal effect.
SMILES,"activity change, negative = inhibition",Potency
CCOc1ccc(N(C(=O)c2snc(C(N)=O)c2N)C(C(=O)NC2CCCC2)C(C)C)cc1 (stereo not given),inactive: -20.9%,–
COc1ccc(-c2cc(NCCc3ccncc3)n3ncnc3n2)cc1,–,"inconclusive: 7.38 µM [inhibitor, partial curve]"
O=C(Cn1cc[n+](CC(=O)c2ccccc2)c1)c1ccccc1,–,"inconclusive: 1.85 µM [inhibitor, partial curve, poor fit]"
c1ccc(Nc2nnc(SCc3cccc4ccccc34)s2)cc1,–,active: 8.28 µM
Cc1cc(=O)oc2c3c(cc(OCC(=O)N[C@H](C(=O)O)c4ccccc4)c12)OC(C)(C)CC3,–,"inconclusive: 10.4 µM [inhibitor, single point]"
Cc1ccc(C(=O)Nc2ccc(C(=O)N3CCCCC3C)cc2)cc1 (stereo not given),inactive: -19.4%,–
COCCCNC(=O)c1ccc2c(c1)nc(C)n2-c1cccc(C)c1,inactive: 21.7%,–
CCCNC(=O)N1[C@H]2CC[C@@H]1C(C(=O)OC)=C(c1ccc3ccccc3c1)C2,inactive: -9.72%,–
N=c1c(C(=O)NCc2ccco2)cc2c(=O)n3ccccc3nc2n1C1CCCC1,–,"inconclusive: 0.415 µM [inhibitor, full curve, poor fit]"
O=C(O)Cc1ccc(C(=O)c2ccc(Cl)cc2Cl)s1,inactive: 27.8%,–
Cc1ccc(Cl)cc1NC(=O)Cn1cc2c(n1)CCCC2,–,active: 2.08 µM
CC(=O)c1cc(NC(=O)c2ccc(C)cc2)c(=O)oc1/C=C/N(C)C,inactive: 63.7%,–
O=C(Nc1cccc(C(F)(F)F)c1)c1cccn(Cc2ccc3c(c2)OC(F)(F)O3)c1=O,inactive: 1.24%,–
C/C(=N\NC(=O)c1ccoc1C)c1ccc(Cl)s1,inactive: -11.7%,–
CCOC(=O)C1CCN(C(=O)CN(c2cc(OC)ccc2OC)S(=O)(=O)c2ccccc2)CC1,–,"inconclusive: 18.5 µM [inhibitor, single point]"
COc1ccc(CNc2ncc(-c3ccccc3)n2C)cc1,–,"inconclusive: 4.65 µM [inhibitor, partial curve]"
O=C(NCCCN1CCOCC1)c1cc(-c2ccc(F)cc2)no1,–,"inconclusive: 11.7 µM [inhibitor, single point]"
Cc1nc(NC(N)=S)sc1C(=O)Nc1ccccc1,–,"inconclusive: 0.0033 µM [inhibitor, full curve, poor fit]"
O=c1[nH]c2ccccc2nc1Cc1ccccc1,–,"inconclusive: 0.657 µM [inhibitor, full curve]"
CC(C)COC(=O)N1C[C@H](O)C[C@H]1C(=O)Nc1ccc(Cl)cc1,inactive: 23.5%,–
Nc1nc(-c2ccccc2)c(-c2ccccc2)s1,–,"inconclusive: 0.415 µM [inhibitor, full curve, poor fit]"
CC1CCCCC1NC(=O)C1CCCN(S(=O)(=O)c2ccc(-n3cnnn3)cc2)C1 (stereo not given),–,"inconclusive: 13.1 µM [inhibitor, single point]"
COc1cc(OC)c(OC)cc1/C=C1\SC(N2CCCCC2)=NC1=O,–,"inconclusive: 10.4 µM [inhibitor, partial curve]"
CN1CCN(c2ccc(/C=C3\C(=O)NC(=S)N(c4cccc(Br)c4)C3=O)o2)CC1,inactive: -10.5%,–

SMILES,"activity change, negative = inhibition",Potency
Cc1csc(NC(=O)c2cccc([N+](=O)[O-])c2C(=O)O)n1,–,"inconclusive: 18.5 µM [inhibitor, single point]"
CCN1C(=O)[C@H]2[C@@H](c3ccc(-c4ccc(Cl)c(Cl)c4)c(OC)c3)N[C@@](Cc3ccccc3)(C(=O)OC)[C@H]2C1=O,–,active: 3.7 µM
O=C(Nc1ccc2oc(-c3ccccc3)nc2c1)c1ccco1,–,"inconclusive: 4.15 µM [inhibitor, single point]"
O=C(COc1ccccc1)Nc1nccs1,–,"inconclusive: 13.1 µM [inhibitor, partial curve]"
CCCCOc1ccc(S(=O)(=O)NC(=O)NCc2ccc(OCCC)cc2)cc1,–,"inconclusive: 18.5 µM [inhibitor, single point]"
Cc1ccc(Cl)cc1NC(=O)c1ccc(NC(=O)CCC(=O)O)cc1,inactive: -0.0485%,–
O=C1NC(=S)N/C1=C/c1ccc2c(c1)OCO2,inactive: 0%,–
COc1ccc(CN(Cc2cccn2C)S(=O)(=O)c2ccc(C)cc2)cc1,–,"inconclusive: 10.4 µM [inhibitor, single point]"
Cc1ccc(N2CCN(C(=O)CNS(=O)(=O)c3ccc(Br)s3)CC2C)cc1 (stereo not given),–,"inconclusive: 10.4 µM [inhibitor, partial curve, poor fit]"
COc1ccc(S(=O)(=O)N2CCCCC2)cc1NC(=O)CCCOc1ccc(C)cc1,–,"inconclusive: 18.5 µM [inhibitor, single point]"
CCCCCCCNC(=O)C1(CC2CC(c3cccc(Br)c3)=NO2)CCN(C(=O)Cc2ccc(F)cc2)CC1 (stereo not given),–,active: 10.4 µM
COc1ccccc1C(=O)O/N=C(\c1ccccc1)c1ccncc1,–,"inconclusive: 18.5 µM [inhibitor, single point]"
CC(NC(=O)CC12CC3CC(CC(C3)C1)C2)C(=O)O (stereo not given),–,active: 9.28 µM
c1ccc2c(c1)[nH]c1c(NCC3CCCO3)ncnc12 (stereo not given),–,"inconclusive: 9.28 µM [inhibitor, single point]"
O=C(c1ccc2c(c1)OCO2)C1CCCN(Cc2c(F)ccc(F)c2F)C1 (stereo not given),–,"inconclusive: 13.1 µM [inhibitor, single point]"
Cc1cccc(C(=O)NC2=NCCS2)c1,inactive: 29.4%,–
O=C(O)/C=C\C(=O)Nc1ccc(N2CCN(c3ccc(F)cc3)CC2)cc1,–,"inconclusive: 10.4 µM [inhibitor, partial curve, poor fit]"
COc1ccc(C2=Nn3c(nnc3C3CCCCC3)SC2)cc1OC,–,active: 4.65 µM
CCOc1ccc(NC(=O)N2CCc3ccccc3C2)cc1,–,"inconclusive: 4.15 µM [inhibitor, partial curve, poor fit]"
CCOc1ccc(S(=O)(=O)c2c(C(=O)c3ccc(C)cc3)cnc3cc4c(cc23)OCCO4)cc1,–,"inconclusive: 11.7 µM [inhibitor, single point]"
CC(=O)Nc1ccc(NC(=O)CCOc2ccccc2C)cc1,inactive: 29%,–
CCCCCC(=O)Nc1cccc(C2=NOC3(C2)C[C@@H](C(N)=O)N(C(=O)c2cc([N+](=O)[O-])cc([N+](=O)[O-])c2C)C3)c1 (stereo not given in full),–,"inconclusive: 18.5 µM [inhibitor, single point]"
C=C(C)CN(CC)C(=O)CCc1nnc(CCCc2ccccc2)o1,inactive: 8.76%,–
CCCCc1ccc(S(=O)(=O)N2CCN(C(=O)c3ccco3)CC2)cc1,–,"inconclusive: 18.5 µM [inhibitor, single point]"

SMILES,"activity change, negative = inhibition",Potency
Cc1cc(C)n(C(=O)CCCC(=O)n2nc(C)cc2C)n1,inactive: -16.7%,–
Cc1cc2nccc(-c3ccc(Cl)cc3Cl)n2n1,inactive: -2%,–
Cc1ccc(/C=C/C(=O)O)cc1S(=O)(=O)NCC1CCCO1 (stereo not given),–,"inconclusive: 18.5 µM [inhibitor, single point]"
CCCCN1CCc2c([nH]c3ccccc23)C1=O,inactive: -6.14%,–
CCc1cc(C(=O)Nc2ccccc2N2CCOCC2)sc1C,–,"inconclusive: 18.5 µM [inhibitor, single point]"
NC(=O)c1ccc(NC(=O)CCN=C2NS(=O)(=O)c3ccccc32)cc1,–,"inconclusive: 11.7 µM [inhibitor, single point]"
S=C(NCCc1ccccc1)N1CCc2ccccc2C1,–,"inconclusive: 0.37 µM [inhibitor, partial curve, poor fit]"
O=C(Cn1cnc2ccccc2c1=O)Nc1ccc(S(=O)(=O)N2CCCC2)cc1,inactive: -17.7%,–
COC(=O)c1ccc(C(=O)NC2CCCN(Cc3ccc(Cl)cc3)C2)nc1 (stereo not given),–,"inconclusive: 9.28 µM [inhibitor, partial curve, poor fit]"
COc1ccc(-c2csc3ncnc(N4CCN(c5cccc(C)c5C)CC4)c23)cc1,–,"inconclusive: 18.5 µM [inhibitor, single point]"
CCN1C(=O)[C@H]2[C@@H](c3ccc(-c4ccc(F)cc4)c(OC)c3)N3CCC[C@@]3(C(=O)OC)[C@H]2C1=O,–,active: 7.38 µM
COc1ccc(/C=C/C(=O)NC(=S)N2CCN(c3ccccc3OC)CC2)cc1,inactive: -24%,–
NNC(=O)C1=NOC(CNc2ncc(C(F)(F)F)cc2Cl)C1 (stereo not given),–,"inconclusive: 18.5 µM [inhibitor, partial curve, poor fit]"
COc1ccc(C2N=C(c3ccccc3)NC(c3ccccc3)=N2)cc1,inactive: 35%,–
Cc1cc(/C=N/n2c(COc3ccccc3C)nc3ccccc3c2=O)c(O)c([N+](=O)[O-])c1,–,"inconclusive: 4.15 µM [inhibitor, partial curve, poor fit]"
CCn1c(SCC(=O)c2ccccc2)nc2c(c1=O)SC(C)C2 (stereo not given),inactive: 30.3%,–
CN(c1ccccc1C(=O)NCc1ccccc1Cl)S(=O)(=O)c1ccccc1,–,"inconclusive: 11.7 µM [inhibitor, partial curve, poor fit]"
CCC(=O)Nc1ccc(/C(C)=N\NC(=O)c2ccc(OC)cc2)cc1,–,"inconclusive: 11.7 µM [inhibitor, partial curve, poor fit]"
Clc1cccc(Cl)c1CN1CCN(c2ncccn2)CC1,–,"inconclusive: 14.7 µM [inhibitor, single point]"
O=C(CSc1ccccn1)N1CCN(c2ncc(C(F)(F)F)cc2Cl)CC1,–,"inconclusive: 16.5 µM [inhibitor, single point]"
COc1cccc(-c2nc(CS(=O)(=O)CC(=O)Nc3c(C)cccc3C)c(C)o2)c1,–,"inconclusive: 9.28 µM [inhibitor, single point]"
O=[N+]([O-])c1cc([N+](=O)[O-])c(Oc2cncc(Cl)c2)cc1NN1CCCCC1,–,"inconclusive: 0.0294 µM [inhibitor, full curve, poor fit]"

# One compound at a time (already shown). Values in the order: activity change, negative = inhibition | Potency
# O=[N+]([O-])c1cc([N+](=O)[O-])c(Oc2cncc(Cl)c2)cc1NN1CCCCC1 reads – | inconclusive: 0.0294 µM [inhibitor, full curve, poor fit]
# COc1cccc(-c2nc(CS(=O)(=O)CC(=O)Nc3c(C)cccc3C)c(C)o2)c1 reads – | inconclusive: 9.28 µM [inhibitor, single point]
# Clc1cccc(Cl)c1CN1CCN(c2ncccn2)CC1 reads – | inconclusive: 14.7 µM [inhibitor, single point]
# NC(=O)c1ccc(NC(=O)CCN=C2NS(=O)(=O)c3ccccc32)cc1 reads – | inconclusive: 11.7 µM [inhibitor, single point]
